# Results: the supplement of paper PMC10338343
# ± gives the standard deviation. The entries are a selection whose mix differs from that of the whole data set. Many entries were measured with a wide error.
# Tested on: MIWI (PIWIL1) piRISC loaded with Kctd7 piRNA (30 nt)
# Experiment: pre-steady-state target cleavage rate (min^-1); MIWI and MILI are mouse PIWI proteins and EfPiwi is from a freshwater sponge; tags in brackets are library labels; higher = faster piRNA-guided slicing of the target
# Conditions: guide: Kctd7 piRNA 5'p-UGUUAAUCUCUCAGAGAAGGUGACAGUGAU; auxiliary factor: 500 nM mouse GTSF1
# Method: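 Cleave-'n-Seq: a library of target RNAs (target site embedded in constant flanks, ACAGCATTCCGCGTTAGTGATATCCG... 5' flank; DNA-blocked outside the site) at 0.1 nM was incubated with 1 nM active mouse MILI or MIWI piRISC (synthetic 5'-monophosphorylated piRNA guide) with or without 500 nM mouse GTSF1 at 33 °C for 1 min to 16 h. Uncleaved targets were sequenced and normalised to non-target controls, and the pooled three trials were fitted to a burst-and-steady-state model to give the pre-steady-state cleavage rate (min^-1; k3 is constrained to at most 1e-4). Sequence is the target site only; target names encode pairing extent (gX:gY) and contiguous / 1-mismatch / 2-mismatch / bulge geometry. Fits with R² ≤ 0 are excluded.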
row,Sequence,pre-steady-state target cleavage rate
1,UAGUGAGUCACCUUCACUGAGAGAUUUACA,0.203 ± 0.036
2,UAGUGACAGUCCUUGUCUGAGAGAUUAAGA,0.000629 ± 0.011
3,UAGUGACUCACCUUCUCUGACACAUUAACA,0.00928 ± 0.0035
4,UAGUGACAGUCCUACUCUGAGAGAUUAUCA,0.00187 ± 0.0038
5,UAGUGACAGUGCUUCUCUCUGAGAUUAAGA,0.000178 ± 0.027
6,UACACUGUCACCUUCUCUGAGUGAUUUUGA,0.00209 ± 0.0073
7,UAGUCUGUCACCUUGACUGAGAGAUUUUGA,0.000757 ± 0.0093
8,UAGACUGUCACGUUCUCUGACAGAUUAACA,0.00161 ± 0.0037
9,UAGUGACAGUCCUUCUCUGAGAGAAAUACA,0.000997 ± 0.005
10,UAGUGAGUCAGGAUCUCUGAGAGAUAUUGA,0.000433 ± 0.011
11,AUCCCUGUCACCUUCUCUGAGAGAUUAACA,0.644 ± 0.051
12,UAGUGACAGUGCUUCUUUGAGAGAUUAACA,0.00128 ± 0.0056
13,UAGUGACAGUCCUUCUCUGUCAGAUUAAGA,0.000189 ± 0.035
14,UUCACUGUCACCUUCUCUGACUCUAAUUGA [g11:g29:cont:t1A],0.00157 ± 0.0046
15,UAGACUGUCACCUUCUCUGACAGAUUUACA,0.00202 ± 0.0039
16,UACACUGUCACCUUCUCUGAGUCAUUUUGA,0.0033 ± 0.0044
17,UAGUGACAGACCUUCUCUGAGAGAUAACA,0.00229 ± 0.0056
18,UAGUGACAGUGGUUGUCUGAGAGUUUAACA,0.000589 ± 0.011
19,UAGUGACAGUGGGUCUCUGAGAGAUUAACA,0.000136 ± 0.027
20,UAGUGACAGUGGAAGAGAGAGAGUUUAAGA,0.000275 ± 0.018
21,UAGACUGUCACCUUCUCUGAGAAGAUUAACA,0.0399 ± 0.0084
22,UAGUGACAGUGGAUCUCUGAGACUAUAACA,0.000574 ± 0.024
23,UAGUGACAGUCGUUCUCUGAGAGAUUAAGA,0.000355 ± 0.024

# For convenience, part of the list above.
row,Sequence,pre-steady-state target cleavage rate
18,UAGUGACAGUGGUUGUCUGAGAGUUUAACA,0.000589 ± 0.011
19,UAGUGACAGUGGGUCUCUGAGAGAUUAACA,0.000136 ± 0.027

# Next results.

row,Sequence,pre-steady-state target cleavage rate
1,UAGUCUGUCACCUUCUCUGACUCAUAUUGA,0.000868 ± 0.0073
2,UAGUGACAGACCUUCUCUGUGAGAUUUUGA,0.000746 ± 0.011
3,UAGUGACACACCUUCUGACUCUCUAAUUGA [g15:g22:cont:t1A],0.0016 ± 0.0054
4,UAGUGACAGAGCUUCUCUGAGAGAUUAUGA,0.000906 ± 0.01
5,UAGUGUGUCACCUUCUCUGAGUGAUUAUCA,0.00944 ± 0.0044
6,UAGACUGUCACCUUCUCUGAGAGAUAAUGA,0.00696 ± 0.0033
7,UAGUGACAGUGGAAGACUGUCAGAUUAACA,0.000549 ± 0.017
8,UAGUGACUCACCAUCUCUGAGAGAUUUUGA,0.00118 ± 0.0049
9,UAGUGUGUCACCUUCUCUGUGAGAUAUUGA,0.00237 ± 0.0049
10,UAGUGACAGUGGAACUCUGAGUGAAUAACA,0.000642 ± 0.016
11,UAGUGACAGUCCUUCUCUGAGUGAUUAUCA,0.00079 ± 0.0049
12,AUCACUGUCACCAUUCUCUGAGAGAUUAACA,0.741 ± 0.036
13,UAGUGACACACCUUCUCUGAGACUUAUUGA,0.000315 ± 0.027
14,UACACUGUCACCUUCUCUGAGACUUUAUGA,0.00869 ± 0.0047
15,UAGUGACAGUGGAAGAGAGAGAGUUUAACA,0.000208 ± 0.026
16,UUCACUCUCACCAUCUCUGAGAGAUUAACA,0.465 ± 0.024
17,UAGUGACAGUGGAACUCUGAGACAUUUACA,0.000923 ± 0.018
18,UACAGUGUCACCAUCUCUGAGAGAUUAACA,0.592 ± 0.036
19,UAGUGACUCACCUUGUCUGUGAGAUUAACA,0.0416 ± 0.0061
20,AUCACUGCCACCUUCUCUGAGAGAUUAACA,0.773 ± 0.044
21,UAGUGACUCACCUUCUCUGAGACUUAUUGA,0.000109 ± 0.047
22,UAGUGACACACCUUCUCUGAGUGAUUAUGA,0.0006 ± 0.012
23,UUCACUGUCACCUUCUGACUCUCUAAUUGA [g15:g29:cont:t1A],0.000695 ± 0.0083

# Random excerpt: 2 entries already listed
row,Sequence,pre-steady-state target cleavage rate
13,UAGUGACAGUCCUUCUCUGUCAGAUUAAGA,0.000189 ± 0.035
22,UAGUGACAGUGGAUCUCUGAGACUAUAACA,0.000574 ± 0.024

# (next part)

row,Sequence,pre-steady-state target cleavage rate
1,UAGUGACUCACCUUCUCUCAGAGAAUAACA,0.00327 ± 0.0036
2,UAGUGACAGUGGAACUCUGAGUAGAUUAACA,0.000721 ± 0.02
3,UAGUGACUCAGCUUCUCUGAGAGAUAUUGA,0.000758 ± 0.0065
4,UACACUGUCAGGAUCUCUGAGAGAUUAUGA,0.00116 ± 0.0057
5,UUCACUGUCACCUUCUCUCUGAGAUAUUGA,0.00389 ± 0.0041
6,UAGUCUGUCACCUUCUCUGACAGAUUUACA,0.0113 ± 0.0036
7,UUCACUGUCACCGUCUCUGAGAGAUUAACA,0.509 ± 0.022
8,UAGUGACAGUGCUUCUCUGUGAGAUUUACA,0.00148 ± 0.0065
9,UAGUGACAGUGCUUCUCUGAGUCAUUAAGA,0.000129 ± 0.025
10,UAGUGAGUCACCUUCUCUGAGUCAUUUUGA,0.00402 ± 0.0043
11,UAGUGACAGACCUUCUCUGAGAGAUAAUGA,0.00258 ± 0.0046
12,UAGUGUGUCUGGUUCUCUGAGAGAUUAUGA,0.000135 ± 0.025
13,AUCUCUGUCACCUUGUCUGAGAGAUUAACA,0.394 ± 0.06
14,UAGACUGUCACCUUCUCUGAGACAUUAUCA,0.00216 ± 0.0034
15,UAGACUGUCACCUUCUCUCUGAGAUUAACA,0.0118 ± 0.0026
16,UAGUGACUCACCUUCUCUCAGUGAUUAACA,0.00278 ± 0.0047
17,UAGUGACUCACCUUCUACUGAGAGAUUAACA,0.000245 ± 0.031
18,UAGUGACACACCUUCUCUCACAGAUUAACA,0.0023 ± 0.0064
19,UACACUGUCACCUUCUCUGUCUGAUUAAGA,0.0061 ± 0.0071
20,UAGUGACAGUGGAACUCUGGAGAUUAACA,0.00125 ± 0.0041
21,UAGUGACACACCUUCUCUCGAGAGAUUAACA,0.00161 ± 0.007
22,UAGUGACAGUGCUUCUCUGAGCAGAUUAACA,0.000908 ± 0.0048
23,AUCAACUGUCACCUUCUCUGAGAGAUUAACA,0.737 ± 0.049

row,Sequence,pre-steady-state target cleavage rate
1,UAGACUGUCACCUUCUCUGUGACAUUAACA,0.0186 ± 0.0033
2,UAGUGACAGUGCUUAUCUGAGAGAUUAACA,0.00129 ± 0.0063
3,UAGUGACACACCUACUCUGAGAGAUUAUGA,0.0029 ± 0.0032
4,UAGUGACAGUGCUUCUCUGUGAGAUAAACA,0.000517 ± 0.011
5,UAGUGACUCACCUUCUCUGAGAGUAAAAGA,0.00221 ± 0.0044
6,UAGUGUGUCACCUUCUCACUGAGAUUAUGA,0.00157 ± 0.0079
7,UAGUGACAGUCCUUCUCUCUCAGAUUAAGA,0.00018 ± 0.039
8,UAGUGACACACCUUCUCUGAGUCUUUAUGA,0.000675 ± 0.013
9,UAGACUGUCACCUUCUCUCAGAGAUAUUGA,0.00178 ± 0.0044
10,UAGUGACAGUCCUUGUCUGUGAGAUUAACA,0.00239 ± 0.0032
11,UACAGUGUCACCUUCUCUGAGUGAUUAACA,0.0377 ± 0.0077
12,UACACUGUCACCUUCUCUGUCUCUAAUUGA [g12:g28:cont:t1A],0.00173 ± 0.0087
13,UAGUGACAGACCUUCUCUGAGAGAAUAAGA,0.00151 ± 0.0065
14,UAGUGACAGACCUUCUCAGAGAGAUUAUGA,0.00121 ± 0.0086
15,UAGUGACACAGGAUCUCUGAGAGAUAUUGA,0.000102 ± 0.035
16,UAGUGUGUCACCUUCUCUCUGAGAUUUUGA,0.00115 ± 0.011
17,UAGUGACACACCUUCUCUGAGCAGAUUAACA,0.000467 ± 0.0096
18,UAGUGACACACCUUCUCUGACUCUAAUUGA [g11:g22:cont:t1A],0.000291 ± 0.03
19,UAGUGACAGUGGAAGAGACUCUCAUUAACA,0.000158 ± 0.02
20,UAGUGACUCACCUUCUCACAGAGAUUAACA,0.00108 ± 0.0068
21,UAGUGACAGUGCUUCUCUGGGAGAUUAACA,0.00221 ± 0.0033
